Values of other authors as cited in US11466260B2, “Thermostable haloarchaeal inorganic pyrophosphatase” (UNIVERSITY OF FLORIDA RESEARCH FOUNDATION, INCORPORATED, priority 2015, dated 2022).
At least one read-out could not be matched to a standard name with certainty.

Conditions: 105° C.; cited from earlier work

B1: Pyrococcus horikoshii: Class A type inorganic pyrophosphatase of Pyrococcus horikoshii (protein, UniProt O59570 1-178, looked up)
Inorganic pyrophosphatase: MNPFHDLEPGPNVPEVVYALIEIPKGSRNKYELDKETGLLKLDRVLYTPFHYPVDYGIIPRTWYEDGDPFDIMVIMREPTYPLTIIEARPIGLFKMIDSGDKDYKVLAVPVEDPYFKDWKDISDVPKAFLDEIAHFFKRYKELEGKEIIVEGWEGAEAAKREILRAIEMYKEKFGKKE
Thermal inactivation (half-life): 50 min
